Numbering of substitutions follows the chain as printed. No constants are given. Whether binding was seen depends on the method and setting. In cells and extracts the contact can be indirect. Some binding calls cover weakened binding; strength is not graded here. For some assays here: Tags and fused reporters may be left off the sequences shown. One block for each molecule: values may come before it.
Key:
[1] = target: T1, FLAG-tagged CODAS LONP1^R721G expressed in 143B cells (human) (UniProt P36776); assay: co-IP; FLAG-tagged LONP1 (WT or R721G) as bait on ANTI-FLAG M2 Affinity Gel, 30 min at 4 °C; cleared 143B lysates in IP buffer (20 mM Tris-HCl pH 7.4, 150 mM NaCl, 1 mM EDTA, 5% glycerol, 1% Igepal CA-630); Western blot
T1 sequence: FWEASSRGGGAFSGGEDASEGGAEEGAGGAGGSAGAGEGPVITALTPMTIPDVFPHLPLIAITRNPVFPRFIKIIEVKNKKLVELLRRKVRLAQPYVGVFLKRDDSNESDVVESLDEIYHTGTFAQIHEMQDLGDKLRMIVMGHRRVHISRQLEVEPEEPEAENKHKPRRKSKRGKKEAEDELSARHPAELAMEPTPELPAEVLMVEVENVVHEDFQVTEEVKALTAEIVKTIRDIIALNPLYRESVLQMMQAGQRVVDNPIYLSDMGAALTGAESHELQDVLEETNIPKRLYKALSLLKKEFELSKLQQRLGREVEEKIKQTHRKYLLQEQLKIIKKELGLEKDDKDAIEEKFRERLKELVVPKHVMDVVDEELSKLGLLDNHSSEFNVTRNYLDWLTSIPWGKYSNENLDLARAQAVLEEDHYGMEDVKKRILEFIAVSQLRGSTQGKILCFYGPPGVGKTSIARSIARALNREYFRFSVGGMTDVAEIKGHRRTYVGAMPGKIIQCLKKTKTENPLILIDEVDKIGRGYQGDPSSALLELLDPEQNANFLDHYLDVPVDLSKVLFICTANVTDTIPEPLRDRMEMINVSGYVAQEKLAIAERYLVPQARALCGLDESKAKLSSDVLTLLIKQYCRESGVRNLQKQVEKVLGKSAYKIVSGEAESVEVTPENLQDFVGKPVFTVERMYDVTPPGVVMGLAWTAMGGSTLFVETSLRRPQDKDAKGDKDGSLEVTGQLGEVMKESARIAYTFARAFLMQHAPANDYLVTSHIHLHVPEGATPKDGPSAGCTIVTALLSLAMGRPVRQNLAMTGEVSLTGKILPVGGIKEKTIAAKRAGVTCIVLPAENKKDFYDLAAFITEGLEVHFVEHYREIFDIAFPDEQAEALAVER

Protein sequences, listed by entry. Tags and fused reporters are not part of them. Residues count along the entry.
UniProt P38646, residues 47-679: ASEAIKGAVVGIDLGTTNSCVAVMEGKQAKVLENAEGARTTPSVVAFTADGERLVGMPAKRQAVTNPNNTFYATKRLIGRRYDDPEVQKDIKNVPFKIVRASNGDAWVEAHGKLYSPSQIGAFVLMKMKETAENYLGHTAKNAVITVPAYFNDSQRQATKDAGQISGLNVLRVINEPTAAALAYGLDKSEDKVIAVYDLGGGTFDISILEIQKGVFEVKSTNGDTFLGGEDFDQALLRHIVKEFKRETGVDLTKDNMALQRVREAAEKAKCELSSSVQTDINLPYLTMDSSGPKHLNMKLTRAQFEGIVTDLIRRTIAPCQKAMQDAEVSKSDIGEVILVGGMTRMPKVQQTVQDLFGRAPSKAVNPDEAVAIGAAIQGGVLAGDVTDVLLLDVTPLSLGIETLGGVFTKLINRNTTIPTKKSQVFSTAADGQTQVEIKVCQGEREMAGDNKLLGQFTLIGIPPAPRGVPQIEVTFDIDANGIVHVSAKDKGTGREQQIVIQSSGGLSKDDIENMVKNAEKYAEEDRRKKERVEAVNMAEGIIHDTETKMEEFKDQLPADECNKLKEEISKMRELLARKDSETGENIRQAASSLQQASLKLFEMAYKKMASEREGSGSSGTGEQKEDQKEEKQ
UniProt O76031, residues 57-633: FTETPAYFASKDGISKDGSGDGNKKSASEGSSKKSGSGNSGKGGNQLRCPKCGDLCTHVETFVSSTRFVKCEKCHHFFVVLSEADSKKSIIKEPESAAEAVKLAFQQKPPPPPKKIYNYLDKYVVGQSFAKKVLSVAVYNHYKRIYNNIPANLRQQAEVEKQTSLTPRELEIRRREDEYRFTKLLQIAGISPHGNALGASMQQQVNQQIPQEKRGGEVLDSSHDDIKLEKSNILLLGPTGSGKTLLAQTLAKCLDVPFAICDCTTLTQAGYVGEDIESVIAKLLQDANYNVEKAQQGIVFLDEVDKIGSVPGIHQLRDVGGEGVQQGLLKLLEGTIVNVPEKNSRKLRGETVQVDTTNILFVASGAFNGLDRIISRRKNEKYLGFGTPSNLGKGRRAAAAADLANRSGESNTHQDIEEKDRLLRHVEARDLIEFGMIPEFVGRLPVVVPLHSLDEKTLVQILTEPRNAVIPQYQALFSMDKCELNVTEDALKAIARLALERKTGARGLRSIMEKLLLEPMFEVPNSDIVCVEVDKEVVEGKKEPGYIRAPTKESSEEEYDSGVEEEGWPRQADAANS

[2] = target: T2, FLAG-tagged LONP1^WT expressed in 143B cells (human) (UniProt P36776); assay: as above
T2 sequence: T1 sequence with G654R

[3] = target: T3, recombinant protease-deficient LONP1^S855A (human) (UniProt P36776); assay: co-IP; CLPX translated in vitro (PURExpress, 8 h, 37 °C) in the presence of recombinant LONP1 S855A; supernatant after 186,000g incubated with anti-LONP1 antibody for 2 h at 4 °C, then Protein A/G-agarose; Western blot; only the target purified
T3 sequence: T1 sequence with G654R, S788A

[4] = target: mtHSP70-FLAG (FLAG-tagged mitochondrial HSP70), constitutively expressed (human) (UniProt P38646); assay: co-IP; mtHSP70-FLAG as bait on ANTI-FLAG M2 Affinity Gel, 30 min at 4 °C; cleared cell lysates in IP buffer (20 mM Tris-HCl pH 7.4, 150 mM NaCl, 1 mM EDTA, 5% glycerol, 1% Igepal CA-630); Western blot; cells with non-target, DNAJA3 or GRPEL1 knock-down, in glucose or galactose with or without 5 uM oligomycin (143B), or control and LONP1 patient fibroblasts
[5] = target: mtHSP70-FLAG expressed in control or LONP1 patient fibroblasts (human) (UniProt P38646); assay: as above

- binding [1]: binds
- binding [2]: binds
Molecule: mtHSP70, endogenous in 143B cells (from UniProt P38646 47-679)

- binding [3]: binds
Molecule: CLPX (amino acid residues 57-633), in vitro translated (from UniProt O76031 57-633) (domain or fragment)

- binding [4]: binds
B1: LONP1, endogenous in 143B cells (protein, UniProt P36776-1 68-959)
chain: T1 sequence with G654R

- binding [5]: binds
B2: LONP1, endogenous in control fibroblasts (protein, UniProt P36776-1 68-959)
chain: T1 sequence with G654R
